Results on two substances are retold here after publication PMC9971906.

Amino acid sequences for entries named in this document (tags omitted).
UniProt P54132: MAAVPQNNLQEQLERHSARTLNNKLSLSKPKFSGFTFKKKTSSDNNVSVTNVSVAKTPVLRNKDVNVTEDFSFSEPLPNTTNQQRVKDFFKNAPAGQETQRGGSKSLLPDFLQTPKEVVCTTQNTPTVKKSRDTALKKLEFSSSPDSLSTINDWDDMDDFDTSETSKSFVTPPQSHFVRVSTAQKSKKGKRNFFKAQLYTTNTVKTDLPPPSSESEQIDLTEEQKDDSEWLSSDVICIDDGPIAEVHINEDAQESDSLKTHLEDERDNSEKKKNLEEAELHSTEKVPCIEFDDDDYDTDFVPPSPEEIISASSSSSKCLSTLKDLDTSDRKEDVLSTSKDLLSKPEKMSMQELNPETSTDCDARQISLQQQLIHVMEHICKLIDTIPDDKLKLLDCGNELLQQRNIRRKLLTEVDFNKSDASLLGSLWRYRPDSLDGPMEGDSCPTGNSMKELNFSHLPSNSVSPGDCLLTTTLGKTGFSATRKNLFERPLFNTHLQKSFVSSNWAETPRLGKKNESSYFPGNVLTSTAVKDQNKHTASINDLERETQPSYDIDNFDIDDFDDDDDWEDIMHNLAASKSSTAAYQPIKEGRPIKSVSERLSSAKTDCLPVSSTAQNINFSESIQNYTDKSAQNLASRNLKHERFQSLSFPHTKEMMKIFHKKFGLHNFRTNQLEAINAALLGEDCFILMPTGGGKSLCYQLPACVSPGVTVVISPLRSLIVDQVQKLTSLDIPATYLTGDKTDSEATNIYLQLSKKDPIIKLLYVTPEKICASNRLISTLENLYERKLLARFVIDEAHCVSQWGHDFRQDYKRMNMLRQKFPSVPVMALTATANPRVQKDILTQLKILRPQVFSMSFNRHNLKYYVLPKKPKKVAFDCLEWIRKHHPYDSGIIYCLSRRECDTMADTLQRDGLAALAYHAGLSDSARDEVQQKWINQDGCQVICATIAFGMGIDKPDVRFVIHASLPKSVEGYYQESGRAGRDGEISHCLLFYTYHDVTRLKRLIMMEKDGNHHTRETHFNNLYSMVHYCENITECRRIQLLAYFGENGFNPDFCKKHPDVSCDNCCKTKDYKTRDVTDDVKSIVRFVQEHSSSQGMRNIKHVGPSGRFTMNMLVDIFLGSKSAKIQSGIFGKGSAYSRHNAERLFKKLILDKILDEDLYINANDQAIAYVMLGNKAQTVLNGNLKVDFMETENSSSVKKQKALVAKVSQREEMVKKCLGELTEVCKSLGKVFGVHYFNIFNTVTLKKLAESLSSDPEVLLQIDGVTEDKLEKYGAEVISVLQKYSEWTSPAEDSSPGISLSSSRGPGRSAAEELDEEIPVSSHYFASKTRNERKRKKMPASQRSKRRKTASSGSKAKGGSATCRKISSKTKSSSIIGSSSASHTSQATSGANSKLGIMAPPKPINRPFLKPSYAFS
UniProt O60934: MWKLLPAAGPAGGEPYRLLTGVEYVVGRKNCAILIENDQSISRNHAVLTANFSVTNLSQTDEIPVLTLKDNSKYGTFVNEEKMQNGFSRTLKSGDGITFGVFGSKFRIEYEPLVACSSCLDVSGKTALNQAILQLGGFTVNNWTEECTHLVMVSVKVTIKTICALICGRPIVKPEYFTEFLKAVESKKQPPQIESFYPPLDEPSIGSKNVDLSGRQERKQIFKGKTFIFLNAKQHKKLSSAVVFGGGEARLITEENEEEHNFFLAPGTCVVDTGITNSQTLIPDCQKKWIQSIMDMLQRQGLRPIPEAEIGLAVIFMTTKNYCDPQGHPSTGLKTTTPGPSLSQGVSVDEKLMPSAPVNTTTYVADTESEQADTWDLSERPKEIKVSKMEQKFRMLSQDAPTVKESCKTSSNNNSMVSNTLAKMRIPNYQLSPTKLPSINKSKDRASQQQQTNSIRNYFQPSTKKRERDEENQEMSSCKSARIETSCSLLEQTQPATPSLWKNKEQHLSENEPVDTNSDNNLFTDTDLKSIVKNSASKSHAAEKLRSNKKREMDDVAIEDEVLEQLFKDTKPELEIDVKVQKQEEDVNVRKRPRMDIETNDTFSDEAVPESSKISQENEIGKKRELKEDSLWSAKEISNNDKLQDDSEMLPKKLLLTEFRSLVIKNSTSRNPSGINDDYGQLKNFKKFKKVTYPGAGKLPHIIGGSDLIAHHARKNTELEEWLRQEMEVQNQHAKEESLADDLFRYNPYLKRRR
UniProt Q92878: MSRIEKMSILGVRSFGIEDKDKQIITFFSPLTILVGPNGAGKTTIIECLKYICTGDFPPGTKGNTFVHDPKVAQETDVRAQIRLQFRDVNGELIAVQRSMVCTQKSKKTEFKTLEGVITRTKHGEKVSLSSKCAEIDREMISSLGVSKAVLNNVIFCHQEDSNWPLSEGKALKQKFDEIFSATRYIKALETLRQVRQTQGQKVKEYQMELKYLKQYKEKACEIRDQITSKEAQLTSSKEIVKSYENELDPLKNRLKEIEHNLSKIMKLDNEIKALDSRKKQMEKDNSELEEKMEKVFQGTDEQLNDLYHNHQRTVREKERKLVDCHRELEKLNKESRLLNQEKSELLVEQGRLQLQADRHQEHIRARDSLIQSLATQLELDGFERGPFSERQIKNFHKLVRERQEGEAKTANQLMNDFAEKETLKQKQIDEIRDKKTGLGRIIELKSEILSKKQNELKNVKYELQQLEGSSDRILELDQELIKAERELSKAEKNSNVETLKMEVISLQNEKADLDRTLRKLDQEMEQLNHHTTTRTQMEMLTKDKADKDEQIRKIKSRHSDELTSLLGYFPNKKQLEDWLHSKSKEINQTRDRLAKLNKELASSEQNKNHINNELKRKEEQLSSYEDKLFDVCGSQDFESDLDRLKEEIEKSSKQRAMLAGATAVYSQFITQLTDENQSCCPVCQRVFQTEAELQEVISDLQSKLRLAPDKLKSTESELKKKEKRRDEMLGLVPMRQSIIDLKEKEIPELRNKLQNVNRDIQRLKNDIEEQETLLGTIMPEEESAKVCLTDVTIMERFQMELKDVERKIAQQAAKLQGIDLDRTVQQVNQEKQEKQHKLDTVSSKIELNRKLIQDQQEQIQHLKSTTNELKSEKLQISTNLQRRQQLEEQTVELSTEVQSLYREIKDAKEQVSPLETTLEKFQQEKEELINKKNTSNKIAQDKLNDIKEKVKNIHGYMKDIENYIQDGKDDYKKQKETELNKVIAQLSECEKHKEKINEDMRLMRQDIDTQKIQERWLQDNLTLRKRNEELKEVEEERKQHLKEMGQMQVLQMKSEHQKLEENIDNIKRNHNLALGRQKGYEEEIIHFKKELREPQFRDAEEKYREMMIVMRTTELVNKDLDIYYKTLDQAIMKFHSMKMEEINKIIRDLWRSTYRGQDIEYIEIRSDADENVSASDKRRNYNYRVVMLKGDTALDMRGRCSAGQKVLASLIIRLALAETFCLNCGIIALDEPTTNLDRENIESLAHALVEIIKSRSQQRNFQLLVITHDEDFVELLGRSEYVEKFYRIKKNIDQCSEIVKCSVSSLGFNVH

These are yes or no findings as the source states them, for the method shown. In cells and extracts the contact can be indirect. Some results given as binding are weak or reduced against the parent protein; the word gives no strength.

This experiment concerns the target bloom syndrome helicase (BLM) (human) (UniProt P54132). Briefly: pull-down; in vitro pulldown (Fig. S3A); bait, tags and conditions not told in the text shown.

Consider NBS1 (from UniProt O60934 1-754), for which the binding result is “binds”. The same measure for RAD50 (from UniProt Q92878 1-1312): “binds”.
